Measurements from paper PMC7181608.
No constants are given. Whether binding was seen depends on the method and setting. Binding seen in cells or lysates may run through a third protein. For some of these results: Binding can be weak; no strength is given.

Amino acid sequences for entries named in this document (tags omitted). A change or cut given only in a name is not applied to a line headed by its entry.
UniProt P58012: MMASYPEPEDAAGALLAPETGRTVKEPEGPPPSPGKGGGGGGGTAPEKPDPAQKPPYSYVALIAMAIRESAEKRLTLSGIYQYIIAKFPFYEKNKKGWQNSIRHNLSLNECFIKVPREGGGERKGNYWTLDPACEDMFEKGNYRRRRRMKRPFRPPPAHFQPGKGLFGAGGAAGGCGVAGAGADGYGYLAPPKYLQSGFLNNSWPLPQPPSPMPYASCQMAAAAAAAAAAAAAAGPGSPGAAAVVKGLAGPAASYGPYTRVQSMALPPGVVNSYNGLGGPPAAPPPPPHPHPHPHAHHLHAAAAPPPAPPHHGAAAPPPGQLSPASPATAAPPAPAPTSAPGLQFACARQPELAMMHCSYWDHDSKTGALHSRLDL

Assays:
[1] = biological target: Myc-tagged forkhead domain-deleted FOXL2 (ΔFH) (human) (UniProt P58012); assay: co-IP; 293T cells transfected with Myc-tagged FOXL2 forms (with Flag-XRCC5 or XRCC6 fragments where indicated); IP with anti-Myc, immunoblot
[2] = biological target: Myc-tagged polyalanine-deleted FOXL2 (ΔAla) (human) (UniProt P58012); assay: as above

Row | Substance | binding [1] | binding [2]
1 | XRCC5 (Ku80), endogenous (from UniProt P13010 1-732) | no binding | binds
2 | XRCC6 (Ku70), endogenous (from UniProt P12956 1-609) | no binding | binds
